Test results taken from paper PMC12989817.
Results are given in words; binding and its absence hold for the method and conditions named. In cells and extracts the contact can be indirect. A yes stands for co-enrichment or nearness to the bait. Other partners may have been found.

By UniProt entry, the sequences of proteins in these tests, tags left out. Residues count along the entry.
UniProt P22001, residues 53-575: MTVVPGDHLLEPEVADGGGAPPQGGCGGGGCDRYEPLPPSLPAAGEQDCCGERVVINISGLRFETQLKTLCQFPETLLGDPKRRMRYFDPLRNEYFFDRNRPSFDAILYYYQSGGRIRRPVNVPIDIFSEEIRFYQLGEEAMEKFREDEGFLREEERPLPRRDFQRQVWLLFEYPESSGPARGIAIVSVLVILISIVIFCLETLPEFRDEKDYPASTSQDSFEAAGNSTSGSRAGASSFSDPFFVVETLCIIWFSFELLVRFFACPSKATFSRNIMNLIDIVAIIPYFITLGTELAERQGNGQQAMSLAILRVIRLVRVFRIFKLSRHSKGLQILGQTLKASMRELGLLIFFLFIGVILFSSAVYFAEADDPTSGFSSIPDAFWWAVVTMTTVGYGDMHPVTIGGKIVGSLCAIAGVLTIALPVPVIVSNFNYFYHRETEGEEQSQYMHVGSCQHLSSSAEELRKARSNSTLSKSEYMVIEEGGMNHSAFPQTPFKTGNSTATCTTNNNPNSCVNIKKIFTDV

B1: SCAMP3 (protein, UniProt O14828 1-347)
chain: MAQSRDGGNPFAEPSELDNPFQDPAVIQHRPSRQYATLDVYNPFETREPPPAYEPPAPAPLPPPSAPSLQPSRKLSPTEPKNYGSYSTQASAAAATAELLKKQEELNRKAEELDRRERELQHAALGGTATRQNNWPPLPSFCPVQPCFFQDISMEIPQEFQKTVSTMYYLWMCSTLALLLNFLACLASFCVETNNGAGFGLSILWVLLFTPCSFVCWYRPMYKAFRSDSSFNFFVFFFIFFVQDVLFVLQAIGIPGWGFSGWISALVVPKGNTAVSVLMLLVALLFTGIAVLGIVMLKRIHSLYRRTGASFQKAQQEFAAGVFSNPAVRTAAANAAAGAAENAFRAP
B2: STX7 (protein, UniProt O15400 1-261)
chain: MSYTPGVGGDPAQLAQRISSNIQKITQCSVEIQRTLNQLGTPQDSPELRQQLQQKQQYTNQLAKETDKYIKEFGSLPTTPSEQRQRKIQKDRLVAEFTTSLTNFQKVQRQAAEREKEFVARVRASSRVSGSFPEDSSKERNLVSWESQTQPQVQVQDEEITEDDLRLIHERESSIRQLEADIMDINEIFKDLGMMIHEQGDVIDSIEANVENAEVHVQQANQQLSRAADYQRKSRKTLCIIILILVIGVAIISLIIWGLNH
B3: PLIN3 (protein, UniProt O60664 1-434)
chain: MSADGAEADGSTQVTVEEPVQQPSVVDRVASMPLISSTCDMVSAAYASTKESYPHIKTVCDAAEKGVRTLTAAAVSGAQPILSKLEPQIASASEYAHRGLDKLEENLPILQQPTEKVLADTKELVSSKVSGAQEMVSSAKDTVATQLSEAVDATRGAVQSGVDKTKSVVTGGVQSVMGSRLGQMVLSGVDTVLGKSEEWADNHLPLTDAELARIATSLDGFDVASVQQQRQEQSYFVRLGSLSERLRQHAYEHSLGKLRATKQRAQEALLQLSQVLSLMETVKQGVDQKLVEGQEKLHQMWLSWNQKQLQGPEKEPPKPEQVESRALTMFRDIAQQLQATCTSLGSSIQGLPTNVKDQVQQARRQVEDLQATFSSIHSFQDLSSSILAQSRERVASAREALDHMVEYVAQNTPVTWLVGPFAPGITEKAPEEKK
B4: EPS15 (protein, UniProt P42566 1-896)
chain: MAAAAQLSLTQLSSGNPVYEKYYRQVDTGNTGRVLASDAAAFLKKSGLPDLILGKIWDLADTDGKGILNKQEFFVALRLVACAQNGLEVSLSSLNLAVPPPRFHDTSSPLLISGTSAAELPWAVKPEDKAKYDAIFDSLSPVNGFLSGDKVKPVLLNSKLPVDILGRVWELSDIDHDGMLDRDEFAVAMFLVYCALEKEPVPMSLPPALVPPSKRKTWVVSPAEKAKYDEIFLKTDKDMDGFVSGLEVREIFLKTGLPSTLLAHIWSLCDTKDCGKLSKDQFALAFHLISQKLIKGIDPPHVLTPEMIPPSDRASLQKNIIGSSPVADFSAIKELDTLNNEIVDLQREKNNVEQDLKEKEDTIKQRTSEVQDLQDEVQRENTNLQKLQAQKQQVQELLDELDEQKAQLEEQLKEVRKKCAEEAQLISSLKAELTSQESQISTYEEELAKAREELSRLQQETAELEESVESGKAQLEPLQQHLQDSQQEISSMQMKLMEMKDLENHNSQLNWCSSPHSILVNGATDYCSLSTSSSETANLNEHVEGQSNLESEPIHQESPARSSPELLPSGVTDENEVTTAVTEKVCSELDNNRHSKEEDPFNVDSSSLTGPVADTNLDFFQSDPFVGSDPFKDDPFGKIDPFGGDPFKGSDPFASDCFFRQSTDPFATSSTDPFSAANNSSITSVETLKHNDPFAPGGTVVAASDSATDPFASVFGNESFGGGFADFSTLSKVNNEDPFRSATSSSVSNVVITKNVFEETSVKSEDEPPALPPKIGTPTRPCPLPPGKRSINKLDSPDPFKLNDPFQPFPGNDSPKEKDPEIFCDPFTSATTTTNKEADPSNFANFSAYPSEEDMIEWAKRESEREEEQRLARLNQQEQEDLELAIALSKSEISEA

Target: C-terminal Kv1.3-TurboID (Kv1.3-V5-TurboID fusion) (human) (UniProt P22001)
Test: proximity labelling; TurboID fused to Kv1.3, stably expressed in Jurkat T-cells; 200 μM biotin for 1 h; lysis in 8 M urea; biotinylated proteins enriched on streptavidin magnetic beads; label-free quantitative MS against untransduced Jurkat T-cells or between lines (>4-fold, p<0.05; n=3)

Row | Binder | binding
1 | B1 | binds
2 | B2 | binds
3 | B3 | binds
4 | B4 | binds
